Assay results

Data taken from PubChem BioAssay AID504749, deposited by NCATS (2011).

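A panel of P. falciparum strains inside erythrocytes is exposed to compounds for three days, then a DNA-binding dye reports the amount of parasite DNA. Each compound was titrated across a series from about 0.000037 to 29 µM. The number is the fitted AC50, the concentration giving a half-maximal change in signal; a lower value means higher potency, whether the curve shows a decrease or an increase. Calls follow the curve class and fit quality: every row here is inconclusive, covering signal-raising curves and weak, poorly fitted, partial or highest-dose-only inhibition curves.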

Values are in µM. Every entry below has the call inconclusive. Only part of the assay is shown, chiefly results filed as inconclusive. A potency from a partial, single-point or poor curve is only a rough figure.

| compound | setting | fitted potency (µM) | remark |
|---|---|---|---|
| `COc1ccc2nc(NC(=O)Nc3ccccc3)sc2c1` | AS120 | 17.78 | inhibitor, single point |
| `COc1ccc2nc(NC(=O)Nc3ccccc3)sc2c1` | DIV14 | 10.69 | inhibitor, partial curve |
| `COc1ccc2nc(NC(=O)Nc3ccccc3)sc2c1` | TAB165 | 3.162 | inhibitor, partial curve |
| `COc1ccc2nc(NC(=O)Nc3ccccc3)sc2c1` | CP269 | 13.46 | inhibitor, partial curve, poor fit |
| `COc1ccc2nc(NC(=O)Nc3ccccc3)sc2c1` | DIV30 | 19.01 | inhibitor, single point |
| `COc1ccc2nc(NC(=O)Nc3ccccc3)sc2c1` | Dd2 | 17.78 | inhibitor, single point |
| `COc1ccc2nc(NC(=O)Nc3ccccc3)sc2c1` | N140 | 8.912 | inhibitor, single point |
| `COc1ccc2nc(NC(=O)Nc3ccccc3)sc2c1` | parasite line A | 17.78 | inhibitor, single point |
| `CC1(CN2CCC(n3c(=O)[nH]c4ccccc43)CC2)OCc2ccccc2-n2cccc21` (stereo not drawn) | CP291 | 21.33 | inhibitor, single point |
| `CC1(CN2CCC(n3c(=O)[nH]c4ccccc43)CC2)OCc2ccccc2-n2cccc21` (stereo not drawn) | DFO2036 | 11.22 | inhibitor, single point |
| `CC1(CN2CCC(n3c(=O)[nH]c4ccccc43)CC2)OCc2ccccc2-n2cccc21` (stereo not drawn) | CP260 | 10 | inhibitor, single point |
| `CC1(CN2CCC(n3c(=O)[nH]c4ccccc43)CC2)OCc2ccccc2-n2cccc21` (stereo not drawn) | CP201 | 15.1 | inhibitor, partial curve, poor fit |
| `CC1(CN2CCC(n3c(=O)[nH]c4ccccc43)CC2)OCc2ccccc2-n2cccc21` (stereo not drawn) | TAB109 | 17.78 | inhibitor, single point |
| `CC1(CN2CCC(n3c(=O)[nH]c4ccccc43)CC2)OCc2ccccc2-n2cccc21` (stereo not drawn) | CP203 | 16.94 | inhibitor, single point |
| `CC1(CN2CCC(n3c(=O)[nH]c4ccccc43)CC2)OCc2ccccc2-n2cccc21` (stereo not drawn) | GB4 | 10.69 | inhibitor, partial curve |
| `CC1(CN2CCC(n3c(=O)[nH]c4ccccc43)CC2)OCc2ccccc2-n2cccc21` (stereo not drawn) | CP211 | 16.94 | inhibitor, single point |
| `CC1(CN2CCC(n3c(=O)[nH]c4ccccc43)CC2)OCc2ccccc2-n2cccc21` (stereo not drawn) | ATS189 | 11.22 | inhibitor, single point |
| `CC1(CN2CCC(n3c(=O)[nH]c4ccccc43)CC2)OCc2ccccc2-n2cccc21` (stereo not drawn) | C2A | 11.22 | inhibitor, single point |
| `CC1(CN2CCC(n3c(=O)[nH]c4ccccc43)CC2)OCc2ccccc2-n2cccc21` (stereo not drawn) | CP194 | 15.1 | inhibitor, single point |
| `CC1(CN2CCC(n3c(=O)[nH]c4ccccc43)CC2)OCc2ccccc2-n2cccc21` (stereo not drawn) | CP297 | 8.492 | inhibitor, partial curve, poor fit |
| `CC1(CN2CCC(n3c(=O)[nH]c4ccccc43)CC2)OCc2ccccc2-n2cccc21` (stereo not drawn) | CP305 | 19.01 | inhibitor, single point |
| `CC1(CN2CCC(n3c(=O)[nH]c4ccccc43)CC2)OCc2ccccc2-n2cccc21` (stereo not drawn) | CP238 | 17.78 | inhibitor, single point |
| `CC1(CN2CCC(n3c(=O)[nH]c4ccccc43)CC2)OCc2ccccc2-n2cccc21` (stereo not drawn) | 3D7 | 11.22 | inhibitor, single point |
| `CC1(CN2CCC(n3c(=O)[nH]c4ccccc43)CC2)OCc2ccccc2-n2cccc21` (stereo not drawn) | CP268 | 21.33 | inhibitor, single point |
| `CC1(CN2CCC(n3c(=O)[nH]c4ccccc43)CC2)OCc2ccccc2-n2cccc21` (stereo not drawn) | ATS95 | 8.912 | inhibitor, single point |
| `CC1(CN2CCC(n3c(=O)[nH]c4ccccc43)CC2)OCc2ccccc2-n2cccc21` (stereo not drawn) | CP286 | 11.22 | inhibitor, single point |
| `CC1(CN2CCC(n3c(=O)[nH]c4ccccc43)CC2)OCc2ccccc2-n2cccc21` (stereo not drawn) | CP265 | 17.78 | inhibitor, single point |
| `CC1(CN2CCC(n3c(=O)[nH]c4ccccc43)CC2)OCc2ccccc2-n2cccc21` (stereo not drawn) | CP335 | 19.01 | inhibitor, single point |
| `CC1(CN2CCC(n3c(=O)[nH]c4ccccc43)CC2)OCc2ccccc2-n2cccc21` (stereo not drawn) | CP269 | 15.1 | inhibitor, partial curve, poor fit |
| `CC1(CN2CCC(n3c(=O)[nH]c4ccccc43)CC2)OCc2ccccc2-n2cccc21` (stereo not drawn) | CP191 | 17.78 | inhibitor, single point |
| `CC1(CN2CCC(n3c(=O)[nH]c4ccccc43)CC2)OCc2ccccc2-n2cccc21` (stereo not drawn) | CP247 | 11.22 | inhibitor, single point |
| `CC1(CN2CCC(n3c(=O)[nH]c4ccccc43)CC2)OCc2ccccc2-n2cccc21` (stereo not drawn) | CP185 | 11.22 | inhibitor, single point |
| `CC1(CN2CCC(n3c(=O)[nH]c4ccccc43)CC2)OCc2ccccc2-n2cccc21` (stereo not drawn) | CP215 | 9.528 | inhibitor, partial curve |

Once more, the final 4:

* CC1(CN2CCC(n3c(=O)[nH]c4ccccc43)CC2)OCc2ccccc2-n2cccc21 (stereo not drawn) [CP191] | fitted potency 17.78 µM (inhibitor, single point)
* CC1(CN2CCC(n3c(=O)[nH]c4ccccc43)CC2)OCc2ccccc2-n2cccc21 (stereo not drawn) [CP247] | fitted potency 11.22 µM (inhibitor, single point)
* CC1(CN2CCC(n3c(=O)[nH]c4ccccc43)CC2)OCc2ccccc2-n2cccc21 (stereo not drawn) [CP185] | fitted potency 11.22 µM (inhibitor, single point)
* CC1(CN2CCC(n3c(=O)[nH]c4ccccc43)CC2)OCc2ccccc2-n2cccc21 (stereo not drawn) [CP215] | fitted potency 9.528 µM (inhibitor, partial curve)